Test results taken from patent publication US20240269113A1, “3-(2-(DIMETHYLAMINO)ETHYL)-1H-INDOL-4-yl DERIVATIVES” (priority 2023, published 2024).

Tests used:
[1] = assay type: in vitro ADME
Experimental: The elimination rate constant and half-life (t1/2) were determined using Ln(MS response) vs time plots. […] The human plasma stability data are included in table A.

In the case of `CC(C)CC(=O)n1cc(CCN(C)C)c2c(O)cccc21` [Compound 195, 1-(3-(2-(dimethylamino)ethyl)-4-hydroxy-1H-indol-1-yl)-3-methylbutan-1-one], the “Human Plasma Maximum % Psilocin” value [1] is reported as 2% and the “Human Hepatocytes Maximum % Psilocin” value is reported as 25%.
